We go through 91 molecules from PubChem BioAssay AID463205 (Broad Institute, 2010).

Screen size: about 2,400 compounds; about 20 (0.8%) were called active.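 The calls were made as follows: active = AC50 no more than ten times the highest tested concentration, or full inhibition at every dose giving a flat fit (cut at about 30 µM in these data); inconclusive = flat fit with activity between 30% and 70%, or poor-quality invalid fit; inactive = AC50 more than ten times the top tested dose.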 The list shows a part of the results. A value given as a limit tells only on which side of the number the result lay.

This test can be described thus: inhibitors of ADP-Glo detection reagents, dose response, artefact control for GSK-3a inhibitor project, biochemical, luminescence, cell-free, homogeneous (AID 463205).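 Also: kinase-free counter-screen against the ADP-Glo detection reagents only; potency is for inhibitors that reduce the luminescence signal.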 The note with it: 5 uM ADP. In general terms: ADP-Glo first removes unused ATP, then detects ADP through luciferase.
A word on the AC50: it is the concentration giving half of the maximal activity seen. Consider `CC(=O)Nc1ccc(NC(=O)CSc2nc3[nH]ncc3c(=O)n2-c2ccccc2)cc1`, for which the AC50 is inactive: > 30 µM.
The result for `CCOc1ccc2nc(NC(=O)COC)sc2c1` reads inactive: > 30 µM; that for `COc1ccccc1C(=O)NNC(=O)c1cccc(Cl)c1`, inactive: > 30 µM; that for `O=c1cc(-c2ccccc2)oc2ccccc12`, inactive: > 30 µM.
The result for `O=C(N/N=C/c1ccc(O)c(O)c1)NC12CC3CC(CC(C3)C1)C2` reads inactive: > 30 µM.
The result for `CC(=S)/C=C1\Sc2ccccc2N1C` reads inactive: > 30 µM.
Take `COc1ccc(Nc2ccc(S(=O)(=O)N3CCCCC3)cc2[N+](=O)[O-])cc1OC`: the AC50 was inactive: > 30 µM.
The result for `O=C(CSc1ccc2nnc(-c3ccccc3)n2n1)N1CCCc2ccccc21` reads inactive: > 30 µM; that for `COCCNc1nc(C)cc(-c2cc(C(=O)NC3CCCC3)on2)n1`, inactive: > 30 µM.
The result for `COC1(OC)N=C(NC(=O)Nc2ccccc2)C2(C#N)C(c3ccccc3)C12C#N` (stereo unspecified) reads inactive: > 30 µM.
The result for `CCOC(=O)c1c(Cc2ccccc2)c[nH]c1C` reads inactive: > 30 µM; that for `N#CCCn1cc(/C=N/O)c(-c2ccccc2)n1`, inactive: > 30 µM; that for `Nc1nonc1-n1nnc(C(=O)N/N=C/c2ccc(Cl)cc2Cl)c1CN1CCOCC1`, inactive: > 30 µM.
For `CCOc1ccc2[nH]cc(S(=O)(=O)c3ccc(C)cc3)c(=O)c2c1`, the AC50 was inactive: > 30 µM.
As for `CCOC(=O)c1sc(NC(=O)CSc2ncn[nH]2)c(C#N)c1C`, the AC50 was inactive: > 30 µM.
In the case of `CN(C)c1ccc(/C=N/NC(=O)c2nnn(-c3nonc3N)c2CN(C)c2ccccc2)cc1` it was inactive: > 30 µM; in that of `Cc1cccc(-c2nnc3n2N=C(c2ccccc2)CS3)c1`, inactive: > 30 µM; in that of `O=C(O)c1[nH]c2ccc([N+](=O)[O-])cc2c1-c1ccccc1`, inactive: > 30 µM.
The result for `Cc1cc(C)n(CCC(=O)N=Nc2c(O)[nH]c3ccc(Br)cc23)n1` reads inactive: > 30 µM.
The result for `CCCNC(=O)OCCC12CC3CC(CC(C3)C1)C2` reads inactive: > 30 µM.
With `CCOC(=O)c1sc(NC(=O)C2CC2)cc1C`, the AC50 was inactive: > 30 µM.
The result for `CCOC(=O)C1=C(C)NC(C)=C(C(=O)OCC)C1c1sccc1C` reads inactive: > 30 µM; that for `N#CCCn1cc(/C=N/O)c(-c2ccc(Cl)cc2)n1`, inactive: > 30 µM.
As to `O=C(CSc1nnc(SCc2ccccc2Cl)s1)N/N=C/c1ccc(C(=O)O)cc1`, the AC50 is inactive: > 30 µM.
In the case of `CC1=C(C#N)c2nc(N)c(C#N)c(C)c2/C1=C\c1ccc(OCC(=O)O)c(Cl)c1`, the AC50 was inactive: > 30 µM.
In the case of `O=C(O)Cn1c(=O)c2c3c(sc2n(Cc2ccc(F)cc2)c1=O)CCCC3` it was inactive: > 30 µM; in that of `CCOC(=O)N1CCc2c(sc3[nH]c(=S)[nH]c(=S)c23)C1`, inactive: > 30 µM.
The result for `O=C(O)C1CCCC[C@H]1C(=O)Nc1ncc([N+](=O)[O-])s1` (stereo partly specified) reads inactive: > 30 µM; that for `Cc1nc(SCC(=O)NCC2CCCO2)c2c(C)c(C)sc2n1` (stereo unspecified), inactive: > 30 µM; that for `COCCCNc1ncnc2nc[nH]c12`, inactive: > 30 µM.
In the case of `CCOc1ccc(N=C2NC(=O)SC2CC(=O)OC)cc1` (stereo unspecified) it was inactive: > 30 µM.
With `N#Cc1c2c(c(NCc3ccco3)n3c1nc1ccccc13)CCC2`, the AC50 was inactive: > 30 µM.
In the case of `Cc1cccc(N=c2oc3cc(O)ccc3cc2C(N)=O)c1` it was inactive: > 30 µM.
The result for `CCOC(=O)N1CCC(N2CCN(S(=O)(=O)c3ccc(Cl)cc3)CC2)CC1` reads inactive: > 30 µM; that for `COc1ccc(Br)cc1C1CC(=O)N2CN(Cc3ccccc3)CSC2=C1C#N` (stereo unspecified), inactive: > 30 µM.
In the case of `Fc1ccc(/C=N/Nc2cc(N3CCOCC3)ncn2)cc1` it was inactive: > 30 µM; in that of `CCOC(=O)c1cccc(NC(=O)C2CCCN2S(=O)(=O)c2cccc3cccnc23)c1` (stereo unspecified), inactive: > 30 µM; in that of `Cc1ccc(N=Nc2c(O)[nH]c3ccc(F)cc23)cc1`, inactive: > 30 µM.
With `CC(C)(C)OC(=O)N1CCC(NC(=O)c2nc[nH]c2C(=O)NC2CCN(C(=O)OC(C)(C)C)CC2)CC1`, the AC50 was inactive: > 30 µM.
The result for `O=C1NC(=Nc2ccccc2)S/C1=C\c1cccs1` reads inactive: > 30 µM.
The result for `CC(C(=O)Nc1nccs1)c1ccc([N+](=O)[O-])cc1` (stereo unspecified) reads inactive: > 30 µM; that for `Cc1ccc(S(=O)(=O)Nc2ccc(O)c3ncccc23)cc1`, inactive: > 30 µM; that for `CCOC(=O)C1=C(O)/C(=C\c2sccc2C)N=C1C`, inactive: > 30 µM.
The result for `N#CC1=C(N)Oc2n[nH]c(-c3cccnc3)c2C1c1cc(F)ccc1F` (stereo unspecified) reads inactive: > 30 µM; that for `CCC(=O)c1ccc(OCC(O)CN2CCCCC2)cc1` (stereo unspecified), inactive: > 30 µM.
Turning to `Cc1nccnc1Sc1ccccc1`, the AC50 was inactive: > 30 µM.
The result for `CS(=O)(=O)Nc1ccc(-c2cc(/C=C3\SC(N)=NC3=O)c[nH]c2=O)cc1` reads inactive: > 30 µM.
The result for `Cc1sc2ncnc(NCc3cccs3)c2c1C` reads inactive: > 30 µM; that for `CCOc1ccc(N2C(=O)C3C(c4ccccc4F)NN(C(=O)c4ccc(C)cc4)C3C2=O)cc1` (stereo unspecified), inactive: > 30 µM; that for `Cc1ccc(-c2nc3c(c(=O)[nH]c(=O)n3CC(C)C)n2CC(C)C)cc1[N+](=O)[O-]`, inactive: > 30 µM.
Consider `Oc1[nH]c2ccc(Br)cc2c1N=Nc1nn[nH]n1`, for which the AC50 is inactive: > 30 µM.
In the case of `COc1cccc(C2CC(=O)N3CN(c4ccccc4F)CSC3=C2C#N)c1` (stereo unspecified) it was inactive: > 30 µM; in that of `O=C(Nc1sc2c(c1C(=O)N1CCOCC1)CCCCC2)c1cccnc1`, inactive: > 30 µM; in that of `O=C(OC1CO[C@H]2O[C@@H]1[C@H](OC(=O)c1ccccc1)[C@H]2OC(=O)c1ccccc1)c1ccccc1` (stereo partly specified), inactive: > 30 µM.
The result for `CC/C(=N\NC(=O)c1nnn(-c2nonc2N)c1-c1cccs1)c1ccccc1` reads inactive: > 30 µM; that for `COc1ccccc1NC(=O)CSc1nnc(-c2ccc(C)cc2)o1`, inactive: > 30 µM.
The result for `COc1ccc(NC(=O)c2c(Nc3ccccc3)sc(C(=O)c3ccc(F)cc3)c2N)cc1` reads inactive: > 30 µM.
`COc1ccc(Nc2cc(C)nc(N)n2)cc1`: the AC50 is inactive: > 30 µM.
Consider `C=CCc1cc(/C=N/n2cnnc2)cc(OCC)c1O`, for which the AC50 was inactive: > 30 µM.
The result for `CNC(=O)CSc1nnc(-c2ccco2)n1-c1ccccc1OC` reads inactive: > 30 µM; that for `CCOC(=O)C1=C(c2ccccc2)Nc2ncnn2C1c1cccc(O)c1` (stereo unspecified), inactive: > 30 µM; that for `COc1cc2c(cc1OC)C(C)N(C(=O)Cn1ncc3c1-c1cc(C)ccc1OC3)CC2` (stereo unspecified), inactive: > 30 µM.
In the case of `CC(C)N=C(NC#N)SCc1ccc(F)cc1` it was inactive: > 30 µM; in that of `Cc1cccc(-n2nc(C)c3c2NC2=C(C(=O)CCC2)C3c2ccccn2)c1` (stereo unspecified), inactive: > 30 µM.
The result for `CC(=O)c1sc(NC(=O)CN2C(=O)NC3(CCCC3)C2=O)nc1-c1ccccc1` reads inactive: > 30 µM; that for `COc1ccc(C(=O)c2c(C(F)(F)F)oc3c2C(=O)c2ccccc2C3=O)cc1`, inactive: > 30 µM; that for `CCOC(=O)N1CCc2c(sc3nc4n(c(=O)c23)N=C(c2ccc(OC)cc2)CS4)C1`, inactive: > 30 µM.
In the case of `CCCC(=O)NC(=S)Nc1ccc(C(C)=O)cc1`, the AC50 is inactive: > 30 µM.
The result for `CCOc1ccc(NC(=O)N(C2CCCCC2)C(C)c2cccnc2)cc1` (stereo unspecified) reads inactive: > 30 µM; that for `CC1(C)Cc2nc3oc4c(=S)nc[nH]c4c3cc2CO1`, inactive: > 30 µM.
The result for `NS(=O)(=O)c1ccc(-c2ccc(/C=C3\SC(=O)NC3=O)o2)cc1` reads inactive: > 30 µM; that for `O=C(N/N=C/c1ccccn1)c1cccc(NC(=O)c2ccccc2Cl)c1`, inactive: > 30 µM.
In the case of `O=C(OCC1OC2OC3(CCCCC3)OC2C2OC3(CCCCC3)OC12)c1ccccc1` (stereo unspecified) it was inactive: > 30 µM; in that of `Nc1ncnc2nc(SCc3ccc(Cl)cc3Cl)[nH]c12`, inactive: > 30 µM.
As to `CCSc1ncnc2c1sc1nc3c(cc12)COC(C)(C)C3`, the AC50 is inactive: > 30 µM.
In the case of `CC(C)c1[nH]nc2c1C(c1ccco1)C(C#N)=C(N)O2` (stereo unspecified) it was inactive: > 30 µM; in that of `Cc1cccc(C)c1OC(=O)Cc1ccccc1[N+](=O)[O-]`, inactive: > 30 µM.
The result for `NC(=O)c1cc([N+](=O)[O-])ccc1NCc1cccc(N)c1` reads inactive: > 30 µM; that for `COc1ccc(/C=C2\Oc3cc(OCC(=O)N4CCC[C@H]4C(=O)O)ccc3C2=O)c(OC)c1OC`, inactive: > 30 µM.
The result for `O=C(CSc1nc2[nH]ncc2c(=O)n1-c1ccccc1Br)NCc1ccccc1Cl` reads inactive: > 30 µM.
On to `C/C(CC(=O)N(C(C)C)C(C)C)=N\NC(=O)COc1ccc(Br)cc1Br`, for which the AC50 is inactive: > 30 µM.
In the case of `Nc1nc(-c2ccccc2)cc(-c2ccccc2O)n1` it was inactive: > 30 µM.
The result for `Cc1ccc2nc(C3CCCCC3)[nH]c2c1` reads inactive: > 30 µM.
The result for `COc1ccc(/C=C2\Oc3cc(OCC(=O)N4CC(O)C[C@H]4C(=O)O)ccc3C2=O)c(OC)c1OC` (stereo partly specified) reads inactive: > 30 µM.
For `CC1CCCN(C(=O)CCc2nnc(-c3ccc4c(c3)OCO4)o2)C1` (stereo unspecified), the AC50 was inactive: > 30 µM.
On to `CC1(C)CC(=O)C2=C(C1)Nc1[nH]n(-c3ccccc3)c(=O)c1C2c1ccc2c(c1)OCO2` (stereo unspecified), for which the AC50 was inactive: > 30 µM.
Consider `N#C/C(C(N)=O)=C1/CCc2ccccc2N1`, for which the AC50 was inactive: > 30 µM.
In the case of `COc1ccc(-c2noc(CSc3nc(-c4ccccc4)cc(=O)[nH]3)n2)cc1OC` it was inactive: > 30 µM; in that of `CCOC(=O)c1nnn(-c2nonc2N)c1-c1ccccc1`, inactive: > 30 µM; in that of `N/C(=N\OC(=O)c1ccco1)c1ccc(Cl)cc1`, inactive: > 30 µM.
The result for `CCOC(=O)c1nnn(-c2nonc2N)c1-c1cccc2ccccc12` reads inactive: > 30 µM.
